Test results taken from article PMC6796926, “Pioneering function of Isl1 in the epigenetic control of cardiomyocyte cell fate”.

Tested on: Nkx2.5
Test: EMSA
Conditions: nuclear extract; 40 mM KCl, 15 mM HEPES pH 8.0, 1 mM EDTA, 0.5 mM DTT, 2 mM MgCl2, 5% glycerol, 10 ng/ul poly dI/dC, 0.1 mg/ml BSA, 30 min, RT; 4% PAGE in 0.5x TBE; protein in a lysate after overexpression; label: biotin (PCR primers)

CGGTGTCTGCTATCACTCAGTTTCATCCCTTTCTTCCCAAATGGCCAGTTTCATGTTGTGTATCTTGACAGTGACTCCCAACCAGAGACTCCTGTTAAGGGAACTTGTCAGTCATAATAGACAATAAGTGAACTTCTTGTTCGGGGTGCTCAATAATTTGCT (double strand) [free Ttn DNA]
binding result: binds

The exact form of at least one protein or probe is not confirmed. Where cells or extracts were used, other partners may take part.
